According to publication PMC4881023, “SALM5 trans-synaptically interacts with LAR-RPTPs in a splicing-dependent manner to regulate synapse development” (Scientific Reports, 2016):
No constants are given. Whether binding was seen depends on the method and setting. Binding can be weak; no strength is given.

Chains of the proteins cited; added tags and fusions are not shown. Lines headed by an entry give the natural chain unless they say otherwise; changes in a name come on top.
UniProt P23468: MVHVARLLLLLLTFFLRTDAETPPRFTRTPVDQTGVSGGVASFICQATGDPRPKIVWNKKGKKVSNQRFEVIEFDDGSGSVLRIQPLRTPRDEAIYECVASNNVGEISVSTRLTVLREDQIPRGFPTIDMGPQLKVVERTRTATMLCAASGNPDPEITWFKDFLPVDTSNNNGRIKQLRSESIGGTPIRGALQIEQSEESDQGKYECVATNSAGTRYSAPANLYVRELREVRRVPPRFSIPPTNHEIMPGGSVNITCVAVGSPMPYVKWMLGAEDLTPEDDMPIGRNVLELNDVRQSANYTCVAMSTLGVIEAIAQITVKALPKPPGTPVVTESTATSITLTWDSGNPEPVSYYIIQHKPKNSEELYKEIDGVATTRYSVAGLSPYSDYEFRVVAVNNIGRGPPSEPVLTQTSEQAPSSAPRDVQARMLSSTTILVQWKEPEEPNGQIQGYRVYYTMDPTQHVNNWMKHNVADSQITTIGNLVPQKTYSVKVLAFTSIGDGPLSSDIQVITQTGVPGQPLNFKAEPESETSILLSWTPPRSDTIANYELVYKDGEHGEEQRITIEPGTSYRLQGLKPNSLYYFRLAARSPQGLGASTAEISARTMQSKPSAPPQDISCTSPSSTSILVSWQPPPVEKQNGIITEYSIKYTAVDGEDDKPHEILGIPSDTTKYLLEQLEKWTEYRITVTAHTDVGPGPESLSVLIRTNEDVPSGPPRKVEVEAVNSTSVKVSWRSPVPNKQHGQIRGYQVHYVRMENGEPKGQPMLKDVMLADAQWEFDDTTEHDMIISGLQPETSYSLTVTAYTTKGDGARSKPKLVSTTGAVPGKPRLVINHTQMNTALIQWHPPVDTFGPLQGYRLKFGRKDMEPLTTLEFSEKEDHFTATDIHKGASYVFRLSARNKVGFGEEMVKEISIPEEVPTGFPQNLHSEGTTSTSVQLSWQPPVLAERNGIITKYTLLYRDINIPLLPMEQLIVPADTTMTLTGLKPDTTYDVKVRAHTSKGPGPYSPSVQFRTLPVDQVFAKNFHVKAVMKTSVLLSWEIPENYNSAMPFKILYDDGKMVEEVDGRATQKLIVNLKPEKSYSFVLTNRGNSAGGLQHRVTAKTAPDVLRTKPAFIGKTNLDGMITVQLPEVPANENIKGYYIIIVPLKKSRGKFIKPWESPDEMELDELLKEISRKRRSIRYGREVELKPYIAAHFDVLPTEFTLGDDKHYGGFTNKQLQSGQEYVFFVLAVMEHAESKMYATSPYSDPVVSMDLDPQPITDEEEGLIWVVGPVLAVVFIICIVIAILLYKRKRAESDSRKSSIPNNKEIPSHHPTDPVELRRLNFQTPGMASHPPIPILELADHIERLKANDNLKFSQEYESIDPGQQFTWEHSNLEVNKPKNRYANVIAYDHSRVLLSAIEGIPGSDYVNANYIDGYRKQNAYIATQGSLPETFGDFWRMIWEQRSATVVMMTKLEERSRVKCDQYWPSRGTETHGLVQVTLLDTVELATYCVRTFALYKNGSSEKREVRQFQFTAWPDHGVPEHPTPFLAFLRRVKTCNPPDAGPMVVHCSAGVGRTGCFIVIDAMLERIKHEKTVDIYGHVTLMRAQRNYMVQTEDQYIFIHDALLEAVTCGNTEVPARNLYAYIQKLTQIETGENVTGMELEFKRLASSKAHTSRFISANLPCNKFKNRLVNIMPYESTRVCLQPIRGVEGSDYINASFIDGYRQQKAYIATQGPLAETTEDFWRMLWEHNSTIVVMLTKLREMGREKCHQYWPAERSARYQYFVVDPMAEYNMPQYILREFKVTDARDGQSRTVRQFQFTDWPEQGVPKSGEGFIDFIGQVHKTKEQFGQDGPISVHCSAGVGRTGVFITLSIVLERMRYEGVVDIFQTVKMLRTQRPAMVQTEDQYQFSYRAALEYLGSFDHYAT

Target: T1, SALM5-Ecto-pDis (not stated (mouse and human SALM5 are named for other constructs)) (UniProt Q8BXA0)
T1 sequence: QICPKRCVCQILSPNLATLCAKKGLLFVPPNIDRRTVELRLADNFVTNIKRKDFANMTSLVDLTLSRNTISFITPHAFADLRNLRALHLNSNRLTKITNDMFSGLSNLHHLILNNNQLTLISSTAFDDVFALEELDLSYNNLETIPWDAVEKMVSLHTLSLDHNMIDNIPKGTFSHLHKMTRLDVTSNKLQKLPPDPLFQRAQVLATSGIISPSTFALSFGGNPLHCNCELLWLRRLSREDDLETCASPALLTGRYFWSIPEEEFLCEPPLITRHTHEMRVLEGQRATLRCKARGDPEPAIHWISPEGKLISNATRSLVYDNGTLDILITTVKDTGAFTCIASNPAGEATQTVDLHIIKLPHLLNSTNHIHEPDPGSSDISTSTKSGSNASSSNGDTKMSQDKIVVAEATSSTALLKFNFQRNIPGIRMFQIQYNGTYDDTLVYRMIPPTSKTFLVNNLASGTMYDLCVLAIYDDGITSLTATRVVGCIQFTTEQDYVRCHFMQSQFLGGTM
Test: cell aggregation assay; two groups of transfected L cells (EGFP + SALM construct; DsRed + LAR-RPTP construct) trypsinized, resuspended in DMEM, mixed and rotated at room temperature for 2 hours; average aggregate size

binding	Substance
binds	PTPδ-Ig A^−B^− in pDisplay (human) (domain or fragment)
binds	PTPδ-Ig A^+B^− in pDisplay (human) (domain or fragment)
binds	PTPδ-Ig (aa 21–309) in pDisplay (from UniProt P23468) (domain or fragment)
